# Test results: the supplement of paper PMC8728848
# Some of the results follow.
# B1: PX14379D-pdi-530-26-530 (Parabacteroides distasonis) (protein)
# chain: DETVYDKLPADDFGQSTAELNALIGNSHNTMKKFWTEYMHLSECSGSMAVTPTRRGGDWYDGGQYREIYMHTWTSQTSRVKSAWKAATEAIGTCNEAIRKLQNSEILTEEEKAQDVADLRGVRAFWIYVMMDYWGNIPLLTEFHPTDKVFPGNSSRQEVFDWLIQEVEEIKDICPPATTENYGSFTQGAAYSLLAKLYLNAEAWGVTFSGNAYQKVIDNCDKVMAMGYILEPNWKDNFSVTNENSKEAILAATFSSSDTGNDGNVKNELHNNTLHYKDYLSLGITASGTWNGICAQPEYVRLFDEEDARLDGTFLTGLMIDKSTGKPIMTDHNNELNHTIDVNMIPGMEYDGTNWSAVEQHDGARCFKWEFASDLTSSMGNDFHIFRLADIYLMKAEALLRGGGSVSEATALVNTIRERGYGNSDHNYATVTLKEVQLERRLELAWEVYSRQDDIRFGCFTTGMWPQSNCERKADDYLKLLPVSQDAWQVNPNLKQNPGYAAFSK
# How the values were obtained:
# Assay in all cases: glycan array binding signal (z-score within array); higher = stronger binding
# Details in all cases: glycan notation: IUPAC condensed, linker removed
# Fuc(a1-3)GlcNAc = target: Fuc(a1-3)GlcNAc
# Outline: (§1)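 Glycan array data were curated from 3228 arrays in the Consortium for Functional Glycomics database and kept only where the protein sequence was available. Glycan names were converted to IUPAC-condensed notation, and columns mapping to the same glycan were averaged. The binding signal is a within-array Z-score, averaged across arrays of the same protein sequence at different concentrations or buffers and across linkers. Negative Z-scores can be read as non-binding.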
# [1] = target: Fuc(a1-3)[Gal(b1-4)]Glc6S
# Outline: as §1
# [2] = target: Fuc(a1-3)[Gal(b1-4)]GlcNAc
# Outline: as §1
# [3] = target: Fuc(a1-3)[Gal(b1-4)]GlcNAc(b1-2)Man
# Outline: as §1
# [4] = target: Fuc(a1-3)[Gal(b1-4)]GlcNAc(b1-2)Man(a1-3)[Fuc(a1-3)[Gal(b1-4)]GlcNAc(b1-2)Man(a1-6)]Man(b1-4)GlcNAc(b1-4)GlcNAc
# Outline: as §1
# [5] = target: Fuc(a1-3)[Gal(b1-4)]GlcNAc(b1-2)Man(a1-3)[Fuc(a1-3)[Gal(b1-4)]GlcNAc(b1-2)Man(a1-6)]Man(b1-4)GlcNAc(b1-4)[Fuc(a1-6)]GlcNAc
# Outline: as §1
# [6] = target: Fuc(a1-3)[Gal(b1-4)]GlcNAc(b1-3)Gal(b1-3)[Fuc(a1-4)]GlcNAc
# Outline: as §1
# [7] = target: Fuc(a1-3)[Gal(b1-4)]GlcNAc(b1-3)Gal(b1-4)[Fuc(a1-3)]GlcNAc
# Outline: as §1
# [8] = target: Fuc(a1-3)[Gal(b1-4)]GlcNAc(b1-3)Gal(b1-4)[Fuc(a1-3)]GlcNAc(b1-3)Gal(b1-4)[Fuc(a1-3)]GlcNAc
# Outline: as §1
# [9] = target: Fuc(a1-3)[Gal(b1-4)]GlcNAc(b1-3)GalNAc
# Outline: as §1
# [10] = target: Fuc(a1-3)[Gal(b1-4)]GlcNAc(b1-6)GalNAc
# Outline: as §1
# [11] = target: Fuc(a1-3)[Gal(b1-4)]GlcNAc(b1-6)[Gal(b1-3)GlcNAc(b1-3)]Gal(b1-4)Glc
# Outline: as §1
# [12] = target: Fuc(a1-3)[Gal(b1-4)]GlcNAc6S
# Outline: as §1
# [13] = target: Fuc(a1-3)[Gal3S(b1-4)]Glc
# Outline: as §1
# [14] = target: Fuc(a1-3)[Gal3S(b1-4)]GlcNAc
# Outline: as §1
# [15] = target: Fuc(a1-3)[Gal3S(b1-4)]GlcNAc6S
# Outline: as §1
# [16] = target: Fuc(a1-3)[GalNAc(b1-4)]GlcNAc
# Outline: as §1
# [17] = target: Fuc(a1-3)[GalNAc(b1-4)]GlcNAc6S
# Outline: as §1
# Fuc(a1-4)GlcNAc = target: Fuc(a1-4)GlcNAc
# Outline: as §1
# Fuc(b1-3)GlcNAc = target: Fuc(b1-3)GlcNAc
# Outline: as §1
# Gal(a1-2)Gal = target: Gal(a1-2)Gal
# Outline: as §1
# Gal(a1-3)Gal = target: Gal(a1-3)Gal
# Outline: as §1
# Gal(a1-3)Gal(b1-3)GlcNAc = target: Gal(a1-3)Gal(b1-3)GlcNAc
# Outline: as §1
# [18] = target: Gal(a1-3)Gal(b1-3)GlcNAc(b1-2)Man
# Outline: as §1
# [19] = target: Gal(a1-3)Gal(b1-3)GlcNAc(b1-2)Man(a1-3)[Gal(a1-3)Gal(b1-3)GlcNAc(b1-2)Man(a1-6)]Man(b1-4)GlcNAc(b1-4)GlcNAc
# Outline: as §1
# [20] = target: Gal(a1-3)Gal(b1-3)GlcNAc(b1-3)GalNAc
# Outline: as §1
# [21] = target: Gal(a1-3)Gal(b1-3)GlcNAc(b1-6)GalNAc
# Outline: as §1
# [22] = target: Gal(a1-3)Gal(b1-3)[Fuc(a1-4)]GlcNAc(b1-2)Man(a1-3)[Gal(a1-3)Gal(b1-3)[Fuc(a1-4)]GlcNAc(b1-2)Man(a1-6)]Man(b1-4)GlcNAc(b1-4)GlcNAc
# Outline: as §1
# Gal(a1-3)Gal(b1-4)Glc = target: Gal(a1-3)Gal(b1-4)Glc
# Outline: as §1
# Gal(a1-3)Gal(b1-4)GlcNAc = target: Gal(a1-3)Gal(b1-4)GlcNAc
# Outline: as §1
binder,measurement,setting,value
B1,glycan array binding signal (z-score),Fuc(a1-3)GlcNAc,-0.715
same,glycan array binding signal (z-score),[1],1.74
same,glycan array binding signal (z-score),[2],-0.689
same,glycan array binding signal (z-score),[3],-0.326
same,glycan array binding signal (z-score),[4],0.394
same,glycan array binding signal (z-score),[5],1.42
same,glycan array binding signal (z-score),[6],-0.965
same,glycan array binding signal (z-score),[7],0.562
same,glycan array binding signal (z-score),[8],-0.534
same,glycan array binding signal (z-score),[9],-0.125
same,glycan array binding signal (z-score),[10],0.622
same,glycan array binding signal (z-score),[11],-0.281
same,glycan array binding signal (z-score),[12],1.23
same,glycan array binding signal (z-score),[13],-0.37
same,glycan array binding signal (z-score),[14],-0.25
same,glycan array binding signal (z-score),[15],-0.261
same,glycan array binding signal (z-score),[16],-0.221
same,glycan array binding signal (z-score),[17],-0.013
same,glycan array binding signal (z-score),Fuc(a1-4)GlcNAc,-0.952
same,glycan array binding signal (z-score),Fuc(b1-3)GlcNAc,-0.499
same,glycan array binding signal (z-score),Gal(a1-2)Gal,-0.331
same,glycan array binding signal (z-score),Gal(a1-3)Gal,-0.878
same,glycan array binding signal (z-score),Gal(a1-3)Gal(b1-3)GlcNAc,-0.681
same,glycan array binding signal (z-score),[18],-0.354
same,glycan array binding signal (z-score),[19],1.73
same,glycan array binding signal (z-score),[20],-0.798
same,glycan array binding signal (z-score),[21],-0.581
same,glycan array binding signal (z-score),[22],2.48
same,glycan array binding signal (z-score),Gal(a1-3)Gal(b1-4)Glc,-0.838
same,glycan array binding signal (z-score),Gal(a1-3)Gal(b1-4)GlcNAc,1.1

# 2 entries picked at random from the list so far:
binder,measurement,setting,value
B1,glycan array binding signal (z-score),Gal(a1-3)Gal(b1-3)GlcNAc,-0.681
same,glycan array binding signal (z-score),[15],-0.261
